# In the supplement of paper PMC5949888:
# Most values lie at the floor of the assay. Slopes are relative: functional sequences can read slightly below zero.
# Tested on: Saccharomyces cerevisiae PS128 hsf1 delta, HSF1(1-493) fusion
# Experiment: growth estimate (transactivation domain function in HSF1 fusion, heat-shock survival) (a.u. (slope of normalised read count over time)); higher = stronger growth at 37°C, i.e. more transactivation activity
# Conditions: library: random library
# Protocol: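 Random 60-nt DNA library encoding peptides of up to 20 aa, fused to the C-terminus of yeast HSF1 residues 1-493 (C-terminal TAD deleted) and expressed from the native HSF1 promoter on a CEN plasmid in hsf1-deleted S. cerevisiae PS128. Cells were selected at 37°C on -trp 5-FOA plates for 0, 2, 4, 6 and 8 days and amplicons were sequenced. Growth estimate is the slope of a robust linear fit of total-sum-normalised read counts (normalised to the first time point) over time, using at least 2 replicates. Sequences are classed functional (TAD activity) above a threshold of -0.13, set from stop-codon control sequences.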
row,Substance,growth estimate
1,SIPLQTCHIGYARCF,< -0.25
2,SPHLYA,< -0.25
3,GSISRWLGPVT,< -0.25
4,YLVLVSVCLFSAWITGM,< -0.25
5,QYLVGG,< -0.25
6,GGLHDWGVRVYTDTYKSLSR,< -0.25
7,RVRDTACIIKPHRRWG,< -0.25
8,GTCP,< -0.25
9,LGPTLPRALGPLREDQTIAL,< -0.25
10,SRDRRWVRTNSLHPGLVAYA,< -0.25
11,GGFE,< -0.25
12,KFG,< -0.25
13,RISGFEKEGHTQCHEPHGRS,< -0.25
14,HDPPR,< -0.25
15,RSTFVPGVALSARGRGLVER,-0.246
16,WRFPDKARLKAP,< -0.25
17,AEVETGGHIADGERAAS,< -0.25
18,MVRLHEKRGCDGSQPN,< -0.25
19,LISVSGSRYKRVWPFAIA,< -0.25
20,LTSIRGVGLVITRVTMASSS,< -0.25
21,PVGYFIHRVTFLARARWFRP,< -0.25
22,IYRGRF,< -0.25
23,EVGLGALRDFKCEFKLEFAG,< -0.25
24,VLVTALRFKTAERGIMCVTA,< -0.25
25,CIRGGKEPMEWYEDILVAHR,< -0.25

row,Substance,growth estimate
1,RAMP,< -0.25
2,SLYSGERKYGRFTWSAVRWG,< -0.25
3,ARTRQYAASDQRLLAHVIRV,< -0.25
4,GLISYGIDIVRALSFDF,< -0.25
5,RSVGMQRGQALSVCVQAPLQ,< -0.25
6,EQEISVPRLRLGTIPPSHRG,< -0.25
7,NNTPGV,< -0.25
8,KLYANEGVRLSATSSRFGFP,< -0.25
9,FNIDSRNHKTSPSMYSLRVI,< -0.25
10,CQARTACGRIRGDRLRWG,< -0.25
11,MSGTTTAMSQYVTRQPFSSN,-0.243
12,GTLHAW,-0.191
13,GVCLSKDLAGHIS,< -0.25
14,HVVPNDPPEARSIEEWL,< -0.25
15,LPDASESTLDFPIV,< -0.25
16,VRVRMTFRSF,< -0.25
17,NSAWRRVDILSREGVS,< -0.25
18,FHLPGKGTEDTFVPAVVGSG,< -0.25
19,GWITVVRASRGKQRSSQRRS,< -0.25
20,MTLNLG,< -0.25
21,FMVSGKGPRESGPARLGAIS,< -0.25
22,ALIQGIVSGGMRKILFDVMR,< -0.25
23,SSLSCFGHRAN,< -0.25
24,LRNKS,< -0.25
25,SRRSADHMRSRLYGIAAGVS,< -0.25

# Rewritten with bars between the fields: entries from further up
row | Substance | growth estimate
14 | HDPPR | < -0.25
15 | RSTFVPGVALSARGRGLVER | -0.246
16 | WRFPDKARLKAP | < -0.25
17 | AEVETGGHIADGERAAS | < -0.25
18 | MVRLHEKRGCDGSQPN | < -0.25

# (cont.)

row,Substance,growth estimate
1,RHGHVHQAARCSWLRLVRIW,< -0.25
2,HLY,< -0.25
3,VHLSDLDWWPKGLAQKAFDQ,< -0.25
4,MVFCRLYRKLSVAVVIQRKT,< -0.25
5,KRGTRG,< -0.25
6,VGRRIWWASRAGQWLGRSDL,< -0.25
7,ILNSDTLTRWTPLSPRPGP,< -0.25
8,AGQL,< -0.25
9,GYKM,< -0.253
10,EMSVGFRRKCGALDTRSRGV,< -0.25
11,MNTPASPSTGILALGYIKVF,-0.248
12,TWTLLDGC,-0.233
13,RPGSYVPGKMGFYENPSNWV,< -0.25
14,FRGG,< -0.25
15,GFTPEMRSRTSSVLNMGIID,-0.25
16,PFRELEL,< -0.25
17,RPAETGLAGTAGVQLTRPRV,< -0.25
18,NTLPRIDA,< -0.25
19,HDRKPKWG,< -0.25
20,NQTRTVHTSLLE,< -0.25
21,CGSFNSASNSRSEPTLTLAA,< -0.25
22,KPCAHEMGDSPETLPLKFDG,< -0.25
23,ASACPVSLIGRRHPRRQSNR,< -0.25
24,RLIDPSEFAAR,< -0.25
25,LGLP,< -0.25

row,Substance,growth estimate
1,LFVGGFLGVRLSKRPCSHDR,< -0.25
2,HDRYLSVGLPLLHVAKGSTI,< -0.25
3,QECDTS,< -0.25
4,NSPQSNCSS,< -0.25
5,DVGQVVVHV,< -0.25
6,TLVFADWQAGSPSIVVRPVT,< -0.25
7,YGRHQLIVSGSPKQSGAPFV,< -0.25
8,HLAS,< -0.25
9,TISYLRR,< -0.25
10,YGLQDYSWASTRSSA,< -0.25
11,NFDLAAVCARVHPKSGLCGV,< -0.25
12,FNGL,< -0.25
13,ASSLWEGALLTHS,< -0.25
14,GLDQGAKEGIHHFHRG,< -0.25
15,VMF,< -0.25
16,PRGRCRGPVYRSS,< -0.25
17,RIAMCRVFTQGATVFMTSGK,< -0.25
18,QGLPIFRRSCGGAL,< -0.25
19,AFRILTRIRKTVSCLQRIYA,< -0.25
20,NMSRVRRREIILRASTDGDP,< -0.25
21,PVSRCWLSGSDGRPLLNNVQ,< -0.25
22,WVGGRPVLKAGGQSELLFPG,< -0.25
23,PGGTSNLGRTIAKMSLYSYP,< -0.25
24,RTSFGAHKDAIHRTSGQSSP,< -0.25
25,SWILSTFYRKW,< -0.25

# Some values from the list:
# Entry of GLDQGAKEGIHHFHRG under growth estimate: < -0.25
# Entry of HDRYLSVGLPLLHVAKGSTI under growth estimate: < -0.25

# Going on with the list.

row,Substance,growth estimate
1,PEGTGCFQRNTRGAVSALEL,< -0.25
2,RLSEMLAHTLTIAGAFLGFS,< -0.25
3,FGSARCSCLWQARDLCTGPG,< -0.25
4,MGQLSVIRLWSWTPTVGV,< -0.25
5,RFPYVQLSRTPRTGNYFTMR,-0.19
6,RKT,< -0.25
7,ATPQSGKGSR,< -0.25
8,NHQSVIVYVDIFRKREVFGF,-0.242
9,VRNFRGL,< -0.25
10,GIRAWSDFTRGGVPDHIWRV,< -0.25
11,GNMAWVWRLLHCRLRYRITC,< -0.25
12,IRITWIFVH,-0.243
13,YSQVGSYGLCNSQIHFPCLL,< -0.25
14,VYVTTPFNSSL,< -0.25
15,RISRCFIARS,< -0.25
16,IKQSLI,< -0.25
17,VPRMSSSRWTG,< -0.25
18,ILVRGCARIWLSSHRIP,< -0.25
19,LNKY,< -0.25
20,CEL,< -0.25
21,FLQPCERAL,< -0.25
22,SARSQECNSAGSRVYPRCTL,< -0.25
23,LKL,< -0.25
24,ETGHVFRWLKSLRWRRSSTS,< -0.25
25,QRGLLSTTWCPTFLLPLLFQ,< -0.25

row,Substance,growth estimate
1,QGRERGEFPRRL,< -0.25
2,KDGISCARVSRGKGRAVAVL,< -0.25
3,SAELIKRRKKDRELAPSHWD,< -0.25
4,KVRMLLGYTASTCNTHIKHA,< -0.25
5,TCIDLVPGAVTSNVLDTSPG,< -0.25
6,LSVRLSFR,< -0.25
7,RTWAEDDMITAQPVERPRSI,< -0.25
8,RKEQLRSSACVYA,< -0.25
9,SLLFFTDLGGM,-0.114
10,IRCPARR,< -0.25
11,NRSLTCEFDCYGVASTSRKE,< -0.25
12,IHLRGTTRIPNGGRSVPLLR,< -0.25
13,REASLRKK,< -0.25
14,SVQSGAVRIQR,< -0.25
15,HSSGPSGTRSRKILTG,< -0.25
16,LKE,< -0.25
17,GLVTSEVNGTAW,< -0.25
18,HVWSR,< -0.25
19,GYGHAVLHSCTLAMQKGYSL,< -0.25
20,TKLRPYGMSHFSGLWGPSGA,< -0.25
21,GPNDFIGSPVSIIGLGRASY,< -0.25
